Record: PubChem BioAssay AID1259254 (NCATS, 2017)

Assay: 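Genome-wide screen for genes that prevent DNA re-replication in cancer cells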 (primary screen)
System: human HCT116 colorectal cancer cells
Knock-down reagent: single siRNA against human genes
Timing: 3 days
Measurement: 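Nuclei stained with Hoechst and imaged; cell-cycle phase assigned by DNA content; G2 share scaled per plate, non-targeting siRNA 0%, GMNN siRNA 100%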
Reading the numbers: G2 robust z-score and G2 cells, % of GMNN control: higher = more G2 cells, more excess DNA replication; raw share of cells in G2: higher = larger share of cells with G2 DNA content
Hit rule: 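Active siRNAs have a G2 robust z of 5 or more median absolute deviations over the median, which in these data means about 38% or higher of GMNN control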
In all, the deposit lists about 59,000 reagents; below is a part drawn at random. Of all reagents, about 1,550 (2.6%) are marked active. 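G2 share is only a proxy for re-replication; each gene was hit by three separate siRNAs, and active genes were retested.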 Raw values vary from plate to plate and are shown uncorrected. Unmarked entries are inactive. Reagents against one gene are numbered here. Reagent sequences are not shown. Not stated in the record: the amount of reagent.

gene symbol | siRNA no. | G2 robust z-score | G2 cells, % of GMNN control | raw share of cells in G2 (%)
PER3 (period circadian regulator 3) | 1 | 0.84 | 8.88 | 9.07
PER3 (period circadian regulator 3) | 2 | 0.474 | 6.3 | 6.39
PER3 (period circadian regulator 3) | 3 | -0.555 | -0.938 | 3.02
PABIR2 (PABIR family member 2) | 1 | -1.35 | -6.5 | 1.27
PABIR2 (PABIR family member 2) | 2 | 0.366 | 5.54 | 4.82
PABIR2 (PABIR family member 2) | 3 | -0.377 | 0.316 | 2.86
KRTAP19-4 (keratin associated protein 19-4) | 1 | 0.488 | 6.4 | 6.77
KRTAP19-4 (keratin associated protein 19-4) | 2 | 3.42 | 27.1 | 13.3
KRTAP19-4 (keratin associated protein 19-4) | 3 | 0.794 | 8.55 | 7
GTF2E1 (general transcription factor IIE subunit 1) | 1 | -0.484 | -0.438 | 3.29
GTF2E1 (general transcription factor IIE subunit 1) | 2 | 3.15 | 25.1 | 16.6
GTF2E1 (general transcription factor IIE subunit 1) | 3 | 0.292 | 5.02 | 4.93
ZHX2 (zinc fingers and homeoboxes 2) | 1 | -0.698 | -1.94 | 3.2
ZHX2 (zinc fingers and homeoboxes 2) | 2 | -0.877 | -3.2 | 5.08
ZHX2 (zinc fingers and homeoboxes 2) | 3 | -0.885 | -3.26 | 3.06
BIRC2 (baculoviral IAP repeat containing 2) | 1 | -0.39 | 0.224 | 4.07
BIRC2 (baculoviral IAP repeat containing 2) | 2 | 1.35 | 12.5 | 9.51
BIRC2 (baculoviral IAP repeat containing 2) | 3 | 4.18 | 32.4 | 15.7
LYSMD3 (LysM domain containing 3) | 1 | -0.0386 | 2.7 | 5.17
LYSMD3 (LysM domain containing 3) | 2 | -0.0246 | 2.79 | 4.16
LYSMD3 (LysM domain containing 3) | 3 | -0.445 | -0.165 | 1.77
PF4 (platelet factor 4) | 1 | 1.98 | 16.9 | 12.2
PF4 (platelet factor 4) | 2 | -0.467 | -0.317 | 4.1
PF4 (platelet factor 4) | 3 | 2.42 | 20 | 10.6
STS (steroid sulfatase) | 1 | -0.531 | -0.768 | 4.8
STS (steroid sulfatase) | 2 | 2.42 | 20 | 11.4
STS (steroid sulfatase) | 3 | 0.487 | 6.4 | 6.9
CUTC (cutC copper transporter) | 1 | 0.856 | 8.99 | 7.25
CUTC (cutC copper transporter) | 2 | 7.55 (active) | 56.1 | 31.4
CUTC (cutC copper transporter) | 3 | 0.636 | 7.44 | 6.99

Next part; the last 3 above are carried over.
gene symbol | siRNA no. | G2 robust z-score | G2 cells, % of GMNN control | raw share of cells in G2 (%)
CUTC (cutC copper transporter) | 1 | 0.856 | 8.99 | 7.25
CUTC (cutC copper transporter) | 2 | 7.55 (active) | 56.1 | 31.4
CUTC (cutC copper transporter) | 3 | 0.636 | 7.44 | 6.99
GPD1 (glycerol-3-phosphate dehydrogenase 1) | 1 | 0.0391 | 3.24 | 6.41
GPD1 (glycerol-3-phosphate dehydrogenase 1) | 2 | 2.92 | 23.5 | 14.2
GPD1 (glycerol-3-phosphate dehydrogenase 1) | 3 | -0.975 | -3.89 | 2.27
RMND1 (required for meiotic nuclear division 1 homolog) | 1 | -0.314 | 0.758 | 4.82
RMND1 (required for meiotic nuclear division 1 homolog) | 2 | 0.0228 | 3.13 | 5.43
RMND1 (required for meiotic nuclear division 1 homolog) | 3 | 1.94 | 16.6 | 8.44
SDC2 (syndecan 2) | 1 | 0.702 | 7.91 | 8.34
SDC2 (syndecan 2) | 2 | 0.523 | 6.65 | 6.85
SDC2 (syndecan 2) | 3 | 2.13 | 17.9 | 9.83
CACNA1I (calcium voltage-gated channel subunit alpha1 I) | 1 | 5.54 (active) | 41.9 | 20.6
CACNA1I (calcium voltage-gated channel subunit alpha1 I) | 2 | -0.592 | -1.2 | 4.38
CACNA1I (calcium voltage-gated channel subunit alpha1 I) | 3 | 0.116 | 3.78 | 5.85
SSR2 (signal sequence receptor subunit 2) | 1 | -1.19 | -5.4 | 2.73
SSR2 (signal sequence receptor subunit 2) | 2 | 0.247 | 4.71 | 5.76
SSR2 (signal sequence receptor subunit 2) | 3 | 0.397 | 5.76 | 5.38
SELENON (selenoprotein N) | 1 | 0.606 | 7.23 | 7.2
SELENON (selenoprotein N) | 2 | -0.755 | -2.34 | 3.34
SELENON (selenoprotein N) | 3 | 0.742 | 8.19 | 5.62
ENGASE (endo-beta-N-acetylglucosaminidase) | 1 | -0.136 | 2.01 | 5.46
ENGASE (endo-beta-N-acetylglucosaminidase) | 2 | -0.743 | -2.26 | 3.6
ENGASE (endo-beta-N-acetylglucosaminidase) | 3 | -0.947 | -3.69 | 1.72
ENPP6 (ectonucleotide pyrophosphatase/phosphodiesterase 6) | 1 | 0.158 | 4.08 | 6.42
ENPP6 (ectonucleotide pyrophosphatase/phosphodiesterase 6) | 2 | 0.767 | 8.36 | 7.76
ENPP6 (ectonucleotide pyrophosphatase/phosphodiesterase 6) | 3 | 0.6 | 7.19 | 9.39
ANXA8L1 (annexin A8 like 1) | 1 | 0.33 | 5.29 | 5.96
ANXA8L1 (annexin A8 like 1) | 2 | -0.973 | -3.88 | 3.4
ANXA8L1 (annexin A8 like 1) | 3 | 1.79 | 15.6 | 10.6
ANXA8L1 (annexin A8 like 1) | 4 | -0.323 | 0.693 | 3.8
ANXA8L1 (annexin A8 like 1) | 5 | -0.388 | 0.239 | 2.96
ANXA8L1 (annexin A8 like 1) | 6 | -0.908 | -3.42 | 2.31
OR4F4 (olfactory receptor family 4 subfamily F member 4) | 1 | -0.415 | 0.0467 | 4.43
OR4F4 (olfactory receptor family 4 subfamily F member 4) | 2 | -0.723 | -2.12 | 3.02
OR4F4 (olfactory receptor family 4 subfamily F member 4) | 3 | 4.74 | 36.3 | 16
FAM50A (family with sequence similarity 50 member A) | 1 | -0.595 | -1.22 | 4.59
FAM50A (family with sequence similarity 50 member A) | 2 | 2.46 | 20.3 | 11.9
FAM50A (family with sequence similarity 50 member A) | 3 | -0.631 | -1.47 | 2.83
ACYP2 (acylphosphatase 2) | 1 | 0.45 | 6.14 | 6.79
ACYP2 (acylphosphatase 2) | 2 | -0.397 | 0.177 | 4.36
ACYP2 (acylphosphatase 2) | 3 | -0.406 | 0.114 | 3.53
KCNQ2 (potassium voltage-gated channel subfamily Q member 2) | 1 | 1.07 | 10.5 | 9.1
KCNQ2 (potassium voltage-gated channel subfamily Q member 2) | 2 | -0.89 | -3.29 | 3.67
KCNQ2 (potassium voltage-gated channel subfamily Q member 2) | 3 | -0.8 | -2.66 | 3.34
SMOX (spermine oxidase) | 1 | -0.698 | -1.94 | 5.07
SMOX (spermine oxidase) | 2 | -0.976 | -3.9 | 2.8
SMOX (spermine oxidase) | 3 | 2.45 | 20.2 | 11.5
DEGS1 (delta 4-desaturase, sphingolipid 1) | 1 | -0.672 | -1.76 | 4.08
DEGS1 (delta 4-desaturase, sphingolipid 1) | 2 | 1.78 | 15.5 | 11.6
DEGS1 (delta 4-desaturase, sphingolipid 1) | 3 | 0.584 | 7.08 | 7.75
HRC (histidine rich calcium binding protein) | 1 | 1.81 | 15.7 | 9.71
HRC (histidine rich calcium binding protein) | 2 | 1.25 | 11.7 | 10.3
HRC (histidine rich calcium binding protein) | 3 | 1.13 | 10.9 | 7.07
EML5 (EMAP like 5) | 1 | -0.211 | 1.48 | 4.13
EML5 (EMAP like 5) | 2 | 0.636 | 7.44 | 5.45
EML5 (EMAP like 5) | 3 | 0.319 | 5.22 | 4.41
ARK2C | 1 | 1.65 | 14.6 | 9.25
ARK2C | 2 | -0.428 | -0.0474 | 3.4
ARK2C | 3 | -0.363 | 0.41 | 3.26
